Some results were stated once for a whole list of compounds, not compound by compound. Some ranges recur; such a range may be that of the whole group of compounds. Blank lines part the entries; values can stand above or below the molecule they belong to.
Biological target: T1, ER-β Receptor (Homo sapiens, UniProt Q92731)
T1 construct: purchased PanVera
Assay: competition ER binding assay (3H-Estradiol), ER-β
Settings: approximate range; Ki from IC50 by Cheng-Prusoff

Sequences of proteins named here, by UniProt entry; tags and fusion partners are left off.
UniProt Q92731, whole entry: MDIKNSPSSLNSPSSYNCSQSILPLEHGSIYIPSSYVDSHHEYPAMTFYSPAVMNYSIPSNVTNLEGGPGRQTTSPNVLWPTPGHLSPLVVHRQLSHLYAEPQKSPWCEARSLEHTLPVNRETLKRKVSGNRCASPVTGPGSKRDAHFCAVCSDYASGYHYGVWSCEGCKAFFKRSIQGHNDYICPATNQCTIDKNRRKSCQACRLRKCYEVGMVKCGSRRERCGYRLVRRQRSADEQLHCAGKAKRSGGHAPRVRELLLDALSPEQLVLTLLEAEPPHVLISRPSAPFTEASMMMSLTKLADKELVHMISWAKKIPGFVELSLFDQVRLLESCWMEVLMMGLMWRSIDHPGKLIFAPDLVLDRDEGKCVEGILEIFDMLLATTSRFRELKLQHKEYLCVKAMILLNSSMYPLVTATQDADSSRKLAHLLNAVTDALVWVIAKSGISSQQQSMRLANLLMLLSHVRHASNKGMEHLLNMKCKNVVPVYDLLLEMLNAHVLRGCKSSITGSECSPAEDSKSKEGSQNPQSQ

SMILES: Oc1ccc([C@@H]2Cc3ccc(O)cc3[C@@H]3CCC[C@H]23)cc1 (racemic) [Example 2, 4-(4-Hydroxy-phenyl)-2,3,3a,4,5,9b-hexahydro-1H-cyclopenta[a]naphthalen-8-ol]
binding affinities (Ki) to the ER-β subtype: 0.2 to 500 nM

SMILES: Oc1ccc([C@@H]2Cc3ccc(O)cc3[C@@H]3COC[C@H]23)cc1 (racemic) [Example 4, 4-(4-Hydroxy-phenyl)-1,3,3a,4,5,9b-hexahydro-naphtho[1,2-c]furan-8-ol]
binding affinities (Ki) to the ER-β subtype: 0.2 to 500 nM

SMILES: Oc1ccc([C@@H]2Cc3cccc(O)c3[C@@H]3CCCC[C@H]23)cc1 (racemic) [Example 6, 9-(4-Hydroxy-phenyl)-4b,5,6,7,8,8a,9,10-octahydro-phenanthren-4-ol]
binding affinities (Ki) to the ER-β subtype: 0.2 to 500 nM

SMILES: CC1(C)CC[C@@H]2[C@H](c3ccc(O)cc3)Cc3ccc(O)cc3[C@@H]2C1 (racemic) [Example 8, 9-(4-Hydroxy-phenyl)-6,6-dimethyl-4b,5,6,7,8,8a,9,10-octahydro-phenanthren-3-ol]
binding affinities (Ki) to the ER-β subtype: 0.2 to 500 nM

SMILES: CC1(C)CC[C@H]2c3cc(O)ccc3C[C@@H](c3ccc(O)cc3)[C@H]2C1 (racemic) [Example 9, 9-(4-Hydroxy-phenyl)-7,7-dimethyl-4b,5,6,7,8,8a,9,10-octahydro-phenanthren-3-ol]
binding affinities (Ki) to the ER-β subtype: 0.2 to 500 nM

SMILES: Oc1ccc([C@@H]2Cc3c(O)ccc(O)c3[C@@H]3CCC[C@H]23)cc1 (racemic) [Example 10, 4-(4-Hydroxy-phenyl)-2,3,3a,4,5,9b-hexahydro-1H-cyclopenta[a]naphthalene-6,9-diol]
binding affinities (Ki) to the ER-β subtype: 0.2 to 500 nM

SMILES: C=Cc1cc(O)cc2c1C[C@@H](c1ccc(O)cc1)[C@H]1CCC[C@@H]21 (racemic) [Example 18, 4-(4-Hydroxy-phenyl)-6-vinyl-2,3,3a,4,5,9b-hexahydro-1H-cyclopenta[a]naphthalen-8-ol]
binding affinities (Ki) to the ER-β subtype: 0.2 to 500 nM

SMILES: Oc1ccc([C@@H]2Cc3c(O)cc(O)cc3[C@@H]3CCCC[C@H]23)cc1 (racemic) [Example 19, 9-(4-Hydroxy-phenyl)-4b,5,6,7,8,8a,9,10-octahydro-phenanthrene-1,3-diol]
binding affinities (Ki) to the ER-β subtype: 0.2 to 500 nM

SMILES: Oc1ccc([C@@H]2Cc3c(CBr)cc(O)cc3[C@@H]3CCCC[C@H]23)cc1 (racemic) [Example 20, 1-Bromomethyl-9-(4-hydroxy-phenyl)-4b,5,6,7,8,8a,9,10-octahydro-phenanthren-3-ol]
binding affinities (Ki) to the ER-β subtype: 0.2 to 500 nM

SMILES: COCc1cc(O)cc2c1C[C@@H](c1ccc(O)cc1)[C@H]1CCCC[C@@H]21 (racemic) [Example 21, 9-(4-Hydroxy-phenyl)-1-methoxymethyl-4b,5,6,7,8,8a,9,10-octahydro-phenanthren-3-ol]
binding affinities (Ki) to the ER-β subtype: 0.2 to 500 nM

SMILES: COC(=O)c1cc(O)cc2c1C[C@@H](c1ccc(O)cc1)[C@H]1CCCC[C@@H]21 (racemic) [Example 22, 3-Hydroxy-9-(4-hydroxy-phenyl)-4b,5,6,7,8,8a,9,10-octahydro-phenanthrene-1-carboxylic acid methyl ester]
binding affinities (Ki) to the ER-β subtype: 0.2 to 500 nM

SMILES: OCc1cc(O)cc2c1C[C@@H](c1ccc(O)cc1)[C@H]1CCCC[C@@H]21 (racemic) [Example 23, 1-Hydroxymethyl-9-(4-hydroxy-phenyl)-4b,5,6,7,8,8a,9,10-octahydro-phenanthren-3-ol]
binding affinities (Ki) to the ER-β subtype: 0.2 to 500 nM

SMILES: N#CCc1cc(O)cc2c1C[C@@H](c1ccc(O)cc1)[C@H]1CCCC[C@@H]21 (racemic) [Example 24, [3-Hydroxy-9-(4-hydroxy-phenyl)-4b,5,6,7,8,8a,9,10-octahydro-phenanthren-1-yl]-acetonitrile]
binding affinities (Ki) to the ER-β subtype: 0.2 to 500 nM

SMILES: N#Cc1cc(O)cc2c1C[C@@H](c1ccc(O)cc1)[C@H]1CCCC[C@@H]21 (racemic) [Example 25, 3-Hydroxy-9-(4-hydroxy-phenyl)-4b,5,6,7,8,8a,9,10-octahydro-phenanthrene-1-carbonitrile]
binding affinities (Ki) to the ER-β subtype: 0.2 to 500 nM

SMILES: C[C@H]1c2ccc(O)cc2[C@@H]2CCCC[C@@H]2[C@@H]1c1ccc(O)cc1 (racemic) [Example 46, 9-(4-Hydroxy-phenyl)-10-methyl-4b,5,6,7,8,8a,9,10-octahydro-phenanthren-3-ol]
binding affinities (Ki) to the ER-β subtype: 0.2 to 500 nM

SMILES: N#CC[C@H]1c2ccc(O)cc2[C@@H]2CCCC[C@@H]2[C@@H]1c1ccc(O)cc1 (racemic) [Example 51, [6-Hydroxy-10-(4-hydroxy-phenyl)-1,2,3,4,4a,9,10,10a-octahydro-phenanthrene-9-yl]-acetonitrile]
binding affinities (Ki) to the ER-β subtype: 0.2 to 500 nM

Continued, values first:

binding affinities (Ki) to the ER-β subtype: 0.2 to 500 nM
SMILES: Oc1ccc([C@@H]2Cc3ccc(O)cc3[C@@H]3CCCC[C@H]23)cc1 (racemic) [Example 1, 9-(4-Hydroxy-phenyl)-4b,5,6,7,8,8a,9,10-octahydro-phenanthren-3-ol]

binding affinities (Ki) to the ER-β subtype: 0.2 to 500 nM
SMILES: Oc1ccc([C@@H]2Cc3cc(O)ccc3[C@@H]3CCCC[C@H]23)cc1 (racemic) [Example 7, 9-(4-Hydroxy-phenyl)-4b,5,6,7,8,8a,9,10-octahydro-phenanthren-2-ol]

binding affinities (Ki) to the ER-β subtype: 0.2 to 500 nM
SMILES: Oc1ccc([C@@H]2Cc3cc(O)c(O)cc3[C@@H]3CCCC[C@H]23)cc1 (racemic) [Example 30, 9-(4-Hydroxy-phenyl)-4b,5,6,7,8,8a,9,10-octahydro-phenanthrene-2,3-diol]

binding affinities (Ki) to the ER-β subtype: 0.2 to 500 nM
SMILES: COc1cc2c(cc1O)[C@@H]1CCCC[C@@H]1[C@H](c1ccc(O)cc1)C2 (racemic) [Example 31, 9-(4-Hydroxy-phenyl)-2-methoxy-4b,5,6,7,8,8a,9,10-octahydro-phenanthren-3-ol]

binding affinities (Ki) to the ER-β subtype: 0.2 to 500 nM
SMILES: Cc1cc2c(cc1O)[C@@H]1CCCC[C@@H]1[C@H](c1ccc(O)cc1)C2 (racemic) [Example 32, 9-(4-Hydroxy-phenyl)-2-methyl-4b,5,6,7,8,8a,9,10-octahydro-phenanthren-3-ol]

binding affinities (Ki) to the ER-β subtype: 0.2 to 500 nM
SMILES: CCCc1cc2c(cc1O)[C@@H]1CCCC[C@@H]1[C@H](c1ccc(O)cc1)C2 (racemic) [Example 33, 9-(4-Hydroxy-phenyl)-2-propyl-4b,5,6,7,8,8a,9,10-octahydro-phenanthren-3-ol]

binding affinities (Ki) to the ER-β subtype: 0.2 to 500 nM
SMILES: CC(C)c1cc2c(cc1O)[C@@H]1CCCC[C@@H]1[C@H](c1ccc(O)cc1)C2 (racemic) [Example 34, 9-(4-Hydroxy-phenyl)-2-isopropyl-4b,5,6,7,8,8a,9,10-octahydro-phenanthren-3-ol]

binding affinities (Ki) to the ER-β subtype: 0.2 to 500 nM
SMILES: OCCCc1cc2c(cc1O)[C@@H]1CCCC[C@@H]1[C@H](c1ccc(O)cc1)C2 (racemic) [Example 40, 9-(4-Hydroxy-phenyl)-2-(3-hydroxy-propyl)-4b,5,6,7,8,8a,9,10-octahydro-phenanthren-3-ol]

binding affinities (Ki) to the ER-β subtype: 0.2 to 500 nM
SMILES: Oc1ccc([C@@H]2Cc3cc(CCCBr)c(O)cc3[C@@H]3CCCC[C@H]23)cc1 (racemic) [Example 43, 2-(3-Bromo-propyl)-9-(4-hydroxy-phenyl)-4b,5,6,7,8,8a,9,10-octahydro-phenanthren-3-ol]

binding affinities (Ki) to the ER-β subtype: 0.2 to 500 nM
SMILES: COCc1cc2c(cc1O)[C@@H]1CCCC[C@@H]1[C@H](c1ccc(O)cc1)C2 (racemic) [Example 45, 9-(4-Hydroxy-phenyl)-2-methoxymethyl-4b,5,6,7,8,8a,9,10-octahydro-phenanthren-3-ol]

Reference: US8093302B2, “Substituted tetralins as selective estrogen receptor-β agonists” (Eli Lilly and Company, priority 2006, dated 2012)
